From EP2392597B1
Positions count from the first letter of the chain named. No constants are given. Whether binding was seen depends on the method and setting. Some results given as binding are weak or reduced against the parent protein; the word gives no strength.

Amino acid sequences for entries named in this document (tags omitted). A change or cut given only in a name is not applied to a line headed by its entry.
UniProt Q9NPF7: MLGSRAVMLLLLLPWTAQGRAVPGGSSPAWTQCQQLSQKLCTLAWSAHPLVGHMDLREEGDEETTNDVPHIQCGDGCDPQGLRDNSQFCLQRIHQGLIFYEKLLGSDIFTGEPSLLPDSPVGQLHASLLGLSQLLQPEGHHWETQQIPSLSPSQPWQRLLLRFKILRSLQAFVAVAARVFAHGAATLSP

B1: anti-IL-23p19 Fab/scFv cluster 134 (Fab, V domains shown)
VH: EVQLLESGGGLVQPGGSLRLSCAASGFTFSTYRMVWVRQAPGKGLEWVSSIYPSGGHTGYADSVKGRFTISRDNSKNTLYLQMNSLRAEDTAVYYCARDEGSNWYSNWFDPWGQGTLVTVSS
VL: QSVLTQPPSVSVTPGQTAILSCSGDKLGDTYASWFQQKPGQSPVMVMYRGNKRPSGIPERFSGSSSGNTATLTISGTQAVDEADYYCQAWDRTTGVFGTGTRLTVL
B2: anti-IL-23p19 Fab/scFv cluster 124 (Fab, V domains shown)
VH: EVQLLESGGGLVQPGGSLRLSCAASGFTFSKYWMAWVRQAPGKGLEWVSYISPSGGWTRYADSVKGRFTISRDNSKNTLYLQMNSLRAEDTAVYYCARVGGSYSLGALDIWGQGTMVTVSS
VL: DIQMTQSPGTLSLSPGERATLSCRASQSVSSYLAWYQQKPGQAPRLLIFDASNRATGIPARFSGAGSGTDFTLTISSLEPEDFAVYYCQQRSNWPWTFGQGTKVEIK
B3: anti-IL-23p19 Fab/scFv cluster 132 (Fab, V domains shown)
VH: EVQLLESGGGLVQPGGSLRLSCAASGFTFSYYEMVWVRQAPGKGLEWVSRIWPSGGYTRYADSVKGRFTISRDNSKNTLYLQMNSLRAEDTAVYYCARGGYDYVWGSYRPYYFDYWGQGTLVTVSS
VL: DIQMTQSPSSLSASVGDRVTITCRASQNINFYLSWFQQKPGKAPKLLIHSVNNLLGPVPSRFSGSGSGTDFTLTIVSLQPEDFATYYCQQGYRPPYTFGQGTKLEIK
B4: anti-IL-23p19 Fab/scFv cluster 119 (Fab, V domains shown)
VH: EVQLLESGGGLVQPGGSLRLSCAASGFTFSPYTMEWVRQAPGKGLEWVSSIYPSGGWTHYADSVKGRFTISRDNSKNTLYLQMNSLRAEDTAMYYCARARSACYDDWGQGTLVTVSS
VL: RHPMTQSPLSLSASVGDRVTVTCRASQSISTYLNWYQQKPGKAPKLLIYAASSLQSGVPSRFSGSGSGTDFTLTIRSLQPDDFATYYCQQSYSSPFTFGPGTKVDFK
B5: anti-IL-23p19 Fab/scFv cluster 137 (Fab, V domains shown)
VH: EVQLLESGGGLVQPGGSLRLSCAASGFTFSFYWMGWVRQAPGKGLEWVSSISSSGGKTQYADSVKGRFTISRDNSKNTLYLQMNSLRAEDTAVYYCATGIAVARYWGQGTLVTVSS
VL: QSALTQPASVSGSPGQSITISCTGTSSDVGGYNYVSWYQQHPGKAPKLMIYEVSNRPSGVSNRFSGSKSGNTASLTISGLQAEDEADYYCSSYASSGARVFGTGTKVTVL
B6: anti-IL-23p19 Fab/scFv cluster 128 (Fab, V domains shown)
VH: EVQLLESGGGLVQPGGSLRLSCAASGFTFSTYGMEWVRQAPGKGLEWVSSISPSGGYTGYADSVKGRFTISRDNSKNTLYLQMNSLRAEDTAVYYCAKDSLYSSSLDAFDIWGQGTMVTVSS
VL: QSALTQPPSASGTPGQRVTISCSGGYSNMGSNYAHWYQQLPGTAPKLLIYNNNQRPSGVPDRFSGSKSGTSASLAISGLRSEDEADYYCAAWDDSLSGPVFGGGTKLTVL
B7: anti-IL-23p19 Fab/scFv cluster 120 (Fab, V domains shown)
VH: EVQLLESGGGLVQPGGSLRLSCAASGFTFSAYVMLWVRQAPGKGLEWVSYIWPSGGETKYADSVKGRFTISRDNSKNTLYLQMNSLRAEDTAVYYCARSMGYGDAFDIWGQGTMVTVSS
VL: DIQMTQSPSSLPVTPGEPASISCRSSQSLLHTNGHNYLDWYLQKPGQSPKLLIYLGSNRASGVPDRFSGSGSGTDFTLKISRVEAEDVGLYYCMQGLQIPLTFGGGTKVEIK
B8: anti-IL-23p19 Fab/scFv cluster 126 (Fab, V domains shown)
VH: EVQLLESGGGLVQPGGSLRLSCAASGFTFSAYPMRWVRQAPGKGLEWVSYIYPSGGPTYYADSVKGRFTISRDNSKNTLYLQMNSLRAEDTAVYYCAQGVGAPVDSWGQGTLVTVSS
VL: QSELTQPPSASGIPGQRVTISCSGSHSNIGRNYVYWYQQLPGTAPKLLIYSNNERPAGVPDRFSGSKSGTSASLAISGLRSEDEVDYYCATWDDSLSGPVFGGGTKLTVL
B9: anti-IL-23p19 Fab/scFv cluster 127 (Fab, V domains shown)
VH: EVQLLESGGGLVQPGGSLRLSCAASGFTFSWYGTAWVRQAPGKGLEWVSVISPSGGPTFYADSVKGRFTISRDNSKNTLYLQMNSLRAEDMAVYYCARDSSGWRTAYYFDYWGQGTLVTVSS
VL: B8 VL with A75D, I76V, R80Q, V85A, T91S, S97I, G98A, P99W, K106M
B10: anti-IL-23p19 Fab/scFv cluster 121 (Fab, V domains shown)
VH: EVQLLESGGGLVQPGGSLRLSCAASGFTFSGYDMSWVRQAPGKGLEWVSSIWSSGGYTKYADSVKGRFTISRDNSKNTLYLQMNSLRAEDTAVYYCARQGVGGSGSLLYWGQGTLVTVSS
VL: DIQMTQSPSSLSASVGDRVTITCRSSQGVRYDLGWYQQKPGKAPKLLIYGAFNLQGGVPSRFSGSGSGTDFTLTISGLQPEDFATYYCLQDFQYPFTFGPGTKVDVK
B11: anti-IL-23p19 Fab/scFv cluster 129 (Fab, V domains shown)
VH: EVQLLESGGGLVQPGGSLRLSCAASGFTFSSYDMIWVRQAPGKGLEWVSRIVPSGGLTGYADSVKGRFTISRDNSKNTLYLQMNSLRAEDTAVYYCARYSLWLGADYWGQGTLVTVSS
VL: DIQMTQSPSSLSASVGDRVAITCRASQSIDTYLNWYQQKPGKAPKLLIYAASKLEDGVPSRFSGSGTGTDFTLTIRSLQPEDFASYFCQQSYSSPGITFGPGTKVEIK
B12: anti-IL-23p19 Fab/scFv cluster 136 (Fab, V domains shown)
VH: EVQLLESGGGLVQPGGSLRLSCAASGFTFSSYGMGWVRQAPGKGLEWVSWIYPSGGHTIYADSVKGRFTISRDNSKNTLYLQMNSLRAEDTATYYCAKDRRNYGSYFDYWGQGTLVTVSS
VL: B11 VL
B13: anti-IL-23p19 Fab/scFv cluster 131 (Fab, V domains shown)
VH: EVQLLESGGGLVQPGGSLRLSCAASGFTFSYYEMVWVRQAPGKGLEWVSRIWPSGGYTRYADSVKGRFTISRDNSKNTLYLQMNSLRAEDTAVYYCARGVLTDPGAFDIWGQGTMVTVSS
VL: DIQMTQSPSFLSASVGDRVTITCRASQGFGSYLAWYQQKPGKAPKLLIYAASTLQSGVPSRFSGSGSGTEFTLTISSLQPEDFATYYCQHLNSFRFTFGPGTKVDIK
B14: anti-IL-23p19 Fab/scFv cluster 130 (Fab, V domains shown)
VH: EVQLLESGGGLVQPGGSLRLSCAASGFTFSYYGMGWVRQAPGKGLEWVSGIWPSGGPTYYADSVKGRFTISRDNSKNTLYLQMNSLRAEDTAMYYCAKYTGSRTRVFDYWGQGTLVTVSS
VL: DIQMTQSPSTLSASVGDRVTLTCRASQSISRYLAWYQQKPGKAPKLLIYKASSLVSGFPSRFSGSGSGTEFTLTISSLQPDDSATYYCQQYNDYPGTFGQGTKLEIK
B15: anti-IL-23p19 Fab/scFv cluster 123 (Fab, V domains shown)
VH: EVQLLESGGGLVQPGGSLRLSCAASGFTFSRYNMVWVRQAPGKGLEWVSSISSSGGFTRYADSVKGRFTISRDNSKNTLYLQMNSLRAEDTAVYYCARWYSSSWYGNWFDPWGQGTLVTVSS
VL: QSALTQPPSVSVSPGQTASITCSGDNLGDKYASWYQQKPGQSPVLVIYQDNKRPSGIPERFSGSNSGNTATLTLSRVEAGDEADYYCQVWDSSYNWVFGGGTKLTVL
B16: anti-IL-23p19 Fab/scFv cluster 122 (Fab, V domains shown)
VH: EVQLLESGGGLVQPGGSLRLSCAASGFTFSDYSMLWVRQAPGKGLEWVSYISSSGGPTKYADSVKGRFTISRDNSKNTLYLQMNSLRAEDTAMYYCARRHYNKRYFDYWGQGTLVTVSS
VL: DIQMTQSPSSLSASVGDRVTVTCRASQSISSYLNWYQQKPGKAPDLLIYAASSLQSGVPSRFSGSGSGTDFTLTISSLQPEDFVTYYCQETYSALTFGGGTKVEIK

target: human p19 subunit of IL-23 (human) (UniProt Q9NPF7); assay: phage display screening

| binding | Binder |
| --- | --- |
| binds | B1 |
| binds | B2 |
| binds | B3 |
| binds | B4 |
| binds | B5 |
| binds | B6 |
| binds | B7 |
| binds | B8 |
| binds | B9 |
| binds | B10 |
| binds | B11 |
| binds | B12 |
| binds | B13 |
| binds | B14 |
| binds | B15 |
| binds | B16 |
